From patent publication US10695562B2, “Interventional drug delivery system and associated methods” (The University of North Carolina at Chapel Hill, priority 2009, dated 2020)

Assay: Iontophoretic delivery of doxorubicin into agarose phantoms
Conditions: 5 minutes
Excerpt: A cylindrical tube of 2% (w/v) agarose gel in deionized (D.I.) water was fabricated as a phantom with an outer diameter (o.d.)=2.5 cm and length ˜3-4 cm. […]. Electrodes were fabricated out of platinum foil (width ˜0.25 cm, length ˜3 cm, thickness ˜0.05 cm). A solution of 0.25% Doxorubicin in 4.875% DMSO and 94.875% DI water was used to model the delivery of a small molecule drug. […] was filled inside the cored reservoir in the agarose phantom and the source electrode (anode, in this case) was inserted into […] reservoir. The other end of the anode was hooked to a DC power source with an alligator clip. The agarose phantom was immersed in a beaker containing DI water. The cathode, a second piece of platinum foil, was placed in the PBS beside the agarose phantom and hooked up to the DC power source. In the negative control, passive diffusion of […] was allowed without any passage of current for 5 minutes. In the experimental condition, a constant current of 5 mA (voltage ˜9.5V) was driven through the electrodes for the same duration (5 minutes). […] The radial diffusion of […] from the edge of the cored reservoir was quantified. […]

COc1cccc2c1C(=O)c1c(O)c3c(c(O)c1C2=O)C[C@@](O)(C(=O)CO)C[C@@H]3O[C@H]1C[C@H](N)[C@H](O)[C@H](C)O1 [Doxorubicin]
radial diffusion of the dye from the edge of the cored reservoir (constant current 5 mA (~9.5V), 0.25% Doxorubicin): spread radially to the edge of the agarose phantom
radial diffusion of the dye from the edge of the cored reservoir (negative control 0 mA, passive diffusion): localized to the inner wall of the reservoir
